PubChem BioAssay AID1224830, NIAID, 2016

- Aim: 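Regulators of TLR4 signalling towards TNF-alpha in macrophage-like cells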 (primary screen)
- System: human THP-1 monocytic leukaemia cells, TNF dual-luciferase reporter clone, PMA-differentiated to macrophage-like cells
- Knock-down reagent: siRNA pool against human genes, 50 nM
- Duration: LPS for 4 h, given about 3 days after siRNA transfection
- Treatment: bacterial LPS (TLR4 ligand), 10 ng/ml
- Measurement: 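TNF firefly reporter luminescence divided by renilla, normalised to the plate median, then turned into a robust z-score for each replicate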
- Scale: TNF reporter robust z-score: higher = stronger TNF reporter response to LPS
- Rule for the call: 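Each well counts as active if its z-score is over 2.8 or under -1.5; controls are left without a call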
Shown is a random part of about 18,000 reagents. About 2,900 of all reagents (16%) were called active. 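Calls are made per well; low scores hint the gene aids the LPS response, high scores that it dampens it.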 Repeated entries: four replicate wells of each siRNA pool. Reagent sequences are not shown.

TNF reporter robust z-score	call	gene
0.25	inactive	PTPMT1 (GeneID 114971)
1.33	inactive	PTPMT1 (GeneID 114971)
-0.33	inactive	PTPMT1 (GeneID 114971)
-0.55	inactive	PTPMT1 (GeneID 114971)
-0.68	inactive	OR1E2 (GeneID 8388)
-0.64	inactive	OR1E2 (GeneID 8388)
-0.52	inactive	OR1E2 (GeneID 8388)
-0.55	inactive	OR1E2 (GeneID 8388)
-0.37	inactive	ARMCX6 (GeneID 54470)
-0.24	inactive	ARMCX6 (GeneID 54470)
-0.62	inactive	ARMCX6 (GeneID 54470)
1.24	inactive	ARMCX6 (GeneID 54470)
4.24	active	CCNQ (GeneID 92002)
3.89	active	CCNQ (GeneID 92002)
1.64	inactive	CCNQ (GeneID 92002)
3.32	active	CCNQ (GeneID 92002)
-1.13	inactive	G6PC1 (GeneID 2538)
-0.92	inactive	G6PC1 (GeneID 2538)
-1.74	active	G6PC1 (GeneID 2538)
-0.11	inactive	G6PC1 (GeneID 2538)
0.51	inactive	CDH1 (GeneID 999)
2.53	inactive	CDH1 (GeneID 999)
0.54	inactive	CDH1 (GeneID 999)
0.98	inactive	CDH1 (GeneID 999)
1.55	inactive	COPS9 (GeneID 150678)
2.59	inactive	COPS9 (GeneID 150678)
2.79	inactive	COPS9 (GeneID 150678)
2.23	inactive	COPS9 (GeneID 150678)
-0.01	inactive	ANKRD26 (GeneID 22852)
0.07	inactive	ANKRD26 (GeneID 22852)
0.25	inactive	ANKRD26 (GeneID 22852)
1.13	inactive	ANKRD26 (GeneID 22852)
-1.12	inactive	RPL27A (GeneID 6157)
-0.63	inactive	RPL27A (GeneID 6157)
-0.42	inactive	RPL27A (GeneID 6157)
-0.05	inactive	RPL27A (GeneID 6157)
0.17	inactive	NEUROD4 (GeneID 58158)
0.16	inactive	NEUROD4 (GeneID 58158)
-0.61	inactive	NEUROD4 (GeneID 58158)
0.47	inactive	NEUROD4 (GeneID 58158)
2.21	inactive	GKN2 (GeneID 200504)
2	inactive	GKN2 (GeneID 200504)
0.49	inactive	GKN2 (GeneID 200504)
1.89	inactive	GKN2 (GeneID 200504)
-0.13	inactive	LRRC43 (GeneID 254050)
0.83	inactive	LRRC43 (GeneID 254050)
0.19	inactive	LRRC43 (GeneID 254050)
0.72	inactive	LRRC43 (GeneID 254050)

20 entries from above, arranged by “TNF reporter robust z-score”, low to high:
TNF reporter robust z-score	call	gene
-1.74	active	G6PC1 (GeneID 2538)
-1.13	inactive	G6PC1 (GeneID 2538)
-0.92	inactive	G6PC1 (GeneID 2538)
-0.62	inactive	ARMCX6 (GeneID 54470)
-0.55	inactive	OR1E2 (GeneID 8388)
-0.37	inactive	ARMCX6 (GeneID 54470)
-0.24	inactive	ARMCX6 (GeneID 54470)
-0.11	inactive	G6PC1 (GeneID 2538)
0.51	inactive	CDH1 (GeneID 999)
0.54	inactive	CDH1 (GeneID 999)
0.98	inactive	CDH1 (GeneID 999)
1.24	inactive	ARMCX6 (GeneID 54470)
1.55	inactive	COPS9 (GeneID 150678)
1.64	inactive	CCNQ (GeneID 92002)
2.53	inactive	CDH1 (GeneID 999)
2.59	inactive	COPS9 (GeneID 150678)
2.79	inactive	COPS9 (GeneID 150678)
3.32	active	CCNQ (GeneID 92002)
3.89	active	CCNQ (GeneID 92002)
4.24	active	CCNQ (GeneID 92002)

More reagents follow.
TNF reporter robust z-score	call	gene
-0.32	inactive	RRP1B (GeneID 23076)
-0.43	inactive	RRP1B (GeneID 23076)
-0.04	inactive	RRP1B (GeneID 23076)
-0.24	inactive	RRP1B (GeneID 23076)
1.05	inactive	ZNF611 (GeneID 81856)
-0.39	inactive	ZNF611 (GeneID 81856)
0.53	inactive	ZNF611 (GeneID 81856)
1.01	inactive	ZNF611 (GeneID 81856)
-0.52	inactive	ZFR (GeneID 51663)
0.64	inactive	ZFR (GeneID 51663)
1.47	inactive	ZFR (GeneID 51663)
2.06	inactive	ZFR (GeneID 51663)
0.16	inactive	QNG1 (GeneID 84267)
0.95	inactive	QNG1 (GeneID 84267)
0.65	inactive	QNG1 (GeneID 84267)
0.4	inactive	QNG1 (GeneID 84267)
-0.48	inactive	ATP6V1C1 (GeneID 528)
0.87	inactive	ATP6V1C1 (GeneID 528)
-0.35	inactive	ATP6V1C1 (GeneID 528)
-0.85	inactive	ATP6V1C1 (GeneID 528)
0.22	inactive	CCDC71 (GeneID 64925)
2.34	inactive	CCDC71 (GeneID 64925)
1.24	inactive	CCDC71 (GeneID 64925)
3.18	active	CCDC71 (GeneID 64925)
-0.79	inactive	FUCA2 (GeneID 2519)
-0.5	inactive	FUCA2 (GeneID 2519)
-1.19	inactive	FUCA2 (GeneID 2519)
-0.04	inactive	FUCA2 (GeneID 2519)
-1.48	inactive	CCL7 (GeneID 6354)
-1.47	inactive	CCL7 (GeneID 6354)
-1.26	inactive	CCL7 (GeneID 6354)
0.42	inactive	CCL7 (GeneID 6354)
0.66	inactive	ZNFX1 (GeneID 57169)
0.23	inactive	ZNFX1 (GeneID 57169)
-0.45	inactive	ZNFX1 (GeneID 57169)
0.12	inactive	ZNFX1 (GeneID 57169)
-0.29	inactive	DBR1 (GeneID 51163)
0.66	inactive	DBR1 (GeneID 51163)
-0.75	inactive	DBR1 (GeneID 51163)
-1.25	inactive	DBR1 (GeneID 51163)
-0.75	inactive	BEND2 (GeneID 139105)
0.2	inactive	BEND2 (GeneID 139105)
0.08	inactive	BEND2 (GeneID 139105)
0.92	inactive	BEND2 (GeneID 139105)
0.54	inactive	EPHB2 (GeneID 2048)
-0.72	inactive	EPHB2 (GeneID 2048)
1.59	inactive	EPHB2 (GeneID 2048)
0.87	inactive	EPHB2 (GeneID 2048)
1.44	inactive	RGL2 (GeneID 5863)
2.08	inactive	RGL2 (GeneID 5863)
0.96	inactive	RGL2 (GeneID 5863)
1.17	inactive	RGL2 (GeneID 5863)
-1.07	inactive	CATSPER1 (GeneID 117144)
-0.49	inactive	CATSPER1 (GeneID 117144)
-0.35	inactive	CATSPER1 (GeneID 117144)
0.53	inactive	CATSPER1 (GeneID 117144)
-1.06	inactive	TTLL13 (GeneID 440307)
-0.59	inactive	TTLL13 (GeneID 440307)
0.77	inactive	TTLL13 (GeneID 440307)
0.73	inactive	TTLL13 (GeneID 440307)
0.2	inactive	PAPOLB (GeneID 56903)
1.41	inactive	PAPOLB (GeneID 56903)
0.79	inactive	PAPOLB (GeneID 56903)
-0.72	inactive	PAPOLB (GeneID 56903)
1.67	inactive	TRIM62 (GeneID 55223)
0.42	inactive	TRIM62 (GeneID 55223)
0.52	inactive	TRIM62 (GeneID 55223)
0.8	inactive	TRIM62 (GeneID 55223)
9.52	active	TMEM60 (GeneID 85025)
0.54	inactive	TMEM60 (GeneID 85025)
3.31	active	TMEM60 (GeneID 85025)
1.4	inactive	TMEM60 (GeneID 85025)
-0.94	inactive	NME2 (GeneID 4831)
-0.52	inactive	NME2 (GeneID 4831)
-0.81	inactive	NME2 (GeneID 4831)
0.46	inactive	NME2 (GeneID 4831)
-0.44	inactive	GPRC5A (GeneID 9052)
0.89	inactive	GPRC5A (GeneID 9052)
0.13	inactive	GPRC5A (GeneID 9052)
-0.59	inactive	GPRC5A (GeneID 9052)
-0.78	inactive	CIB4 (GeneID 130106)
-0.81	inactive	CIB4 (GeneID 130106)
-1.06	inactive	CIB4 (GeneID 130106)
0.26	inactive	CIB4 (GeneID 130106)
2.19	inactive	LRRD1 (GeneID 401387)
2.54	inactive	LRRD1 (GeneID 401387)
-0.73	inactive	LRRD1 (GeneID 401387)
-0.85	inactive	LRRD1 (GeneID 401387)
-1.07	inactive	PCCB (GeneID 5096)
-0.98	inactive	PCCB (GeneID 5096)
0.6	inactive	PCCB (GeneID 5096)
-0.21	inactive	PCCB (GeneID 5096)
